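Protease assay of ClpP1P2, read by the AMC dye that it sets free. Target: ClpP1P2, Mycobacterium tuberculosis (UniProt P9WPC5 and UniProt P9WPC3). Compounds at 50 µM. Higher reads as stronger inhibition, judged from the few compounds that gave an IC50. Most other retested compounds had strongly negative values. Of about 69,000 compounds tested this way, about 10 (0.015%) reached 50% or more in at least one test.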

Amino acid sequences for entries named in this document (tags omitted).
UniProt P9WPC5, whole entry: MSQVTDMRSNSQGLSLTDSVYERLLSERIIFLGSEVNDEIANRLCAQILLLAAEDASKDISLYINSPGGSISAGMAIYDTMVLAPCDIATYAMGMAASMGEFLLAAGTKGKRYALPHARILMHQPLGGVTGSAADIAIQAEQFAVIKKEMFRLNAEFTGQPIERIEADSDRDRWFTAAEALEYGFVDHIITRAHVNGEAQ
UniProt P9WPC3, whole entry partner: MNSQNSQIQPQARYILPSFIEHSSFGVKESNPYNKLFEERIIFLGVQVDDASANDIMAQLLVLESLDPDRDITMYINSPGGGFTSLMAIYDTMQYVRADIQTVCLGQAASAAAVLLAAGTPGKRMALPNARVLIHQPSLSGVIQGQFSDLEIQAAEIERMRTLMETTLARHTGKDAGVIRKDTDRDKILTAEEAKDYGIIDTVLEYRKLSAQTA

Each number is a percent effect as filed.
The record does not define 0% and 100%; most values in the screen are far below 50% and negative numbers occur (in some assays of this library far below -100).
Compounds were drawn at random from those tested, without regard to their results.

For O=C(c1cccc(CNS(=O)(=O)c2ccc(F)cc2)c1)N1CCCC1 the result was -7.158%.
For COCc1noc(Cn2ccc3ncccc3c2=O)n1 the result was -10.4%.
For CN(C(=O)Cn1nc(-c2ccc(F)cc2)ccc1=O)C1CCS(=O)(=O)C1 (stereo not shown) the result was -6.549%.
For Cc1nonc1C1CCCN1C(=O)c1cc2n(n1)CCCNC2 (stereo not shown) the result was 11.25%.
For Cc1ccc(NC2COC3(CCN(CC(C)C)CC3)C2)nn1 (stereo not shown) the result was 5.833%.
For CCn1cc(CN(C)c2nc(C)c3ccc(S(C)(=O)=O)cc3n2)cn1 the result was -5.33%.
For Cn1nc(COc2cncnc2)c2c1CCN(Cc1ccccn1)C2 the result was -5.445%.
For CC(C)Oc1cccc(C(O)CNC(=O)Nc2cccs2)c1 (stereo not shown) the result was -14.42%.
For O=C1OC2(CCNCC2)CN1CC(=O)N1CCCC1c1nccs1 (stereo not shown) the result was 3.962%.
For COCC1CN(Cc2ccccn2)Cc2nn(C)cc21 (stereo not shown) the result was 7.965%.
For O=C(c1cc(Cn2ccc3ccccc32)[nH]n1)N1CCOCC1 the result was -10.04%.
For Cc1occc1C(=O)NC1CCN(C(=O)Nc2cccnc2)CC1 the result was 1.723%.
For CC1=Nc2c(c(=O)[nH]n2C2CCOCC2)C(c2cccc(Br)c2)S1 (stereo not shown) the result was 4.499%.
For CN(Cc1noc(C(C)(C)C)n1)Cc1ccccc1N1CCCCC1 the result was -14.85%.
For CN(C)CCN1CC[C@@H]2O[C@@H](COCC(=O)N3CCCC3)CC[C@@H]21 the result was -6.625%.
For Cn1ccnc1C(=O)N1CCC2(CCCN2CC2CC2)CC1 the result was -2.841%.
For CCn1ncc2[nH]c(-c3ccc(OC)c(COC)c3)nc21 the result was -9.268%.
For O=S1(=O)COCCN1Cc1ccc(Cl)c(F)c1 the result was -6.039%.
For Cc1nccn1C1(C(=O)O)CCN(Cc2ccc3occc3c2)CC1 the result was 2.612%.
For CCC(=O)N1CCCC(c2ncc3c(n2)CCN(C)C3)C1 (stereo not shown) the result was 6.077%.
For O=C(NCC(O)c1ccsc1)Nc1cccs1 (stereo not shown) the result was -10.94%.
For O=C(c1cccs1)N1CCC(O)(CN2CCc3ccccc3C2)C1 (stereo not shown) the result was -7.26%.
For CCOC1CCN(C(=O)NCCN(C)C(=O)OC(C)(C)C)CC1 the result was -4.395%.
For CC(c1cccs1)N(C)Cc1cnc(-c2ccccn2)nc1 (stereo not shown) the result was -10.49%.
For CN(C(=O)c1ccccn1)c1nnc(C2CCOC2)s1 (stereo not shown) the result was -12.79%.
For O=C(NCc1nnc2n1CCC2)c1cn(-c2ccccc2)nn1 the result was -0.9794%.
For c1ncn(CC2CCCCN2Cc2csc(C3CCCC3)n2)n1 (stereo not shown) the result was -0.8341%.
For CNC(=O)CN1CC[C@H]2CN(C(=O)c3ccoc3)C[C@H]2C1 the result was -3.083%.
For CSc1ccc(C(=O)N2CC(=O)N(CC(C)(C)C)CC(O)C2)cc1 (stereo not shown) the result was 0.1267%.

The last 4 entries again:

Compound	Percent Effect
O=C(NCc1nnc2n1CCC2)c1cn(-c2ccccc2)nn1	-0.9794
c1ncn(CC2CCCCN2Cc2csc(C3CCCC3)n2)n1 (stereo not shown)	-0.8341
CNC(=O)CN1CC[C@H]2CN(C(=O)c3ccoc3)C[C@H]2C1	-3.083
CSc1ccc(C(=O)N2CC(=O)N(CC(C)(C)C)CC(O)C2)cc1 (stereo not shown)	0.1267

Source: ChEMBL document CHEMBL3988442, “University of Dundee, Small-Polar-MMV Screening Library” (2021).